Source: the supplement of paper PMC7666118
Some of the results follow.

Chains of the proteins cited; added tags and fusions are not shown. Lines headed by an entry give the natural chain unless they say otherwise; changes in a name come on top.
UniProt Q15067: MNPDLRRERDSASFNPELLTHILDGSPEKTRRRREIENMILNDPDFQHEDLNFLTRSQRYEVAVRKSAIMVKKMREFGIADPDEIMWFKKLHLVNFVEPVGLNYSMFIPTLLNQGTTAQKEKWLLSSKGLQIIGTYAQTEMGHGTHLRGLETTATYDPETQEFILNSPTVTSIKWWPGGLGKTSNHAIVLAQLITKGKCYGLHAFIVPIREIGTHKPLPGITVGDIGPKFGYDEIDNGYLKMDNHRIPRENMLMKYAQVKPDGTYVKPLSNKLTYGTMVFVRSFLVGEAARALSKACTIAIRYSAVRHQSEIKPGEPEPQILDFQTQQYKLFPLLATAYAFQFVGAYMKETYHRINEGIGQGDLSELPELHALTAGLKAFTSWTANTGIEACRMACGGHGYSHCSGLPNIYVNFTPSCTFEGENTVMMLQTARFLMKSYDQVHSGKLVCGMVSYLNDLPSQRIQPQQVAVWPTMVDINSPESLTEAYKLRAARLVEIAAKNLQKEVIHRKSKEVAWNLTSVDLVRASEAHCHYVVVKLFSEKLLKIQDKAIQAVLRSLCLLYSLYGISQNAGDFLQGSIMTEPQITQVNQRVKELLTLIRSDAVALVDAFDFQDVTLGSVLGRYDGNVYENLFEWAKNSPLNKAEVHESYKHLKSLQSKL
UniProt P30038: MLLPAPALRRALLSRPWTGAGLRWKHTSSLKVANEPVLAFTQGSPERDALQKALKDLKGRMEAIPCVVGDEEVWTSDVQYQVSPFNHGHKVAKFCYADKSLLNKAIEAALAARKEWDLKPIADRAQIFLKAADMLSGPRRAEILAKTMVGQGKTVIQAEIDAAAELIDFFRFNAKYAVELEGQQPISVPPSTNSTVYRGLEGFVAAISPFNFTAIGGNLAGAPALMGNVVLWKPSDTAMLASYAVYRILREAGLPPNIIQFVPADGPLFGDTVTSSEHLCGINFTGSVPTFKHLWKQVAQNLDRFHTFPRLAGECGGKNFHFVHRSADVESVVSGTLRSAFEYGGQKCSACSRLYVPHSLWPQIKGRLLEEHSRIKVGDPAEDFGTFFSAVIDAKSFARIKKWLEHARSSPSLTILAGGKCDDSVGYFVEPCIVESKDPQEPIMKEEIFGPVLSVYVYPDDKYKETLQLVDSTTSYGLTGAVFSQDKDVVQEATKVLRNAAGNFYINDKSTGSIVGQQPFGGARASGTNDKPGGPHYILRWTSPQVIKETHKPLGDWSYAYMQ
UniProt O14617: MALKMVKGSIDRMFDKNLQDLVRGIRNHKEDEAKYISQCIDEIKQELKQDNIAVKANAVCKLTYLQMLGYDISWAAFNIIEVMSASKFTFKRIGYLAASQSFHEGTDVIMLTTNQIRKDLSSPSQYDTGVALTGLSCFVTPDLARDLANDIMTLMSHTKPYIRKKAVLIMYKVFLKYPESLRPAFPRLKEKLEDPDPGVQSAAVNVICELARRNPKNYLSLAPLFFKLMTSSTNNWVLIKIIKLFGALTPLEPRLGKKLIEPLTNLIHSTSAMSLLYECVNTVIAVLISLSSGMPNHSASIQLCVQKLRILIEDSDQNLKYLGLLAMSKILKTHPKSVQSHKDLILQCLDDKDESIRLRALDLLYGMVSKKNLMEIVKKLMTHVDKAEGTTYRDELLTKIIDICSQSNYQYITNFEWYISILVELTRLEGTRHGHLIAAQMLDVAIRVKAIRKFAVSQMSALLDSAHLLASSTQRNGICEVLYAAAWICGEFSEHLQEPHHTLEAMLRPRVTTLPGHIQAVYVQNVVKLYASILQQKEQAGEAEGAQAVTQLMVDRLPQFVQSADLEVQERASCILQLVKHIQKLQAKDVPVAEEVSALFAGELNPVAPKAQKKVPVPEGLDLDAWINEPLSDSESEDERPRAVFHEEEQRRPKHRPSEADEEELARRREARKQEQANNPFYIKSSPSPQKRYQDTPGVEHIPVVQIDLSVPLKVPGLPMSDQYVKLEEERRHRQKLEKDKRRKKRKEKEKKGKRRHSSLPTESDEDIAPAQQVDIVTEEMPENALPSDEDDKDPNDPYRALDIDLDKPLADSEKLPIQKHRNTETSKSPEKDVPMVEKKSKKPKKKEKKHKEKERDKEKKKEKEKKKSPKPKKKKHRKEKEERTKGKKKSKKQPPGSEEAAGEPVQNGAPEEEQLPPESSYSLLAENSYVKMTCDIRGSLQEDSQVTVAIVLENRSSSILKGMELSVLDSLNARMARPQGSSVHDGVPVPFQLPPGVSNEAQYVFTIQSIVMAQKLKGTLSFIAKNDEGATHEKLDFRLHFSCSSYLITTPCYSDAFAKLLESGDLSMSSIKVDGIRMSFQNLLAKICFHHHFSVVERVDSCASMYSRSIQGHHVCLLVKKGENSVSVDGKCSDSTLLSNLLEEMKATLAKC
UniProt Q6AI12: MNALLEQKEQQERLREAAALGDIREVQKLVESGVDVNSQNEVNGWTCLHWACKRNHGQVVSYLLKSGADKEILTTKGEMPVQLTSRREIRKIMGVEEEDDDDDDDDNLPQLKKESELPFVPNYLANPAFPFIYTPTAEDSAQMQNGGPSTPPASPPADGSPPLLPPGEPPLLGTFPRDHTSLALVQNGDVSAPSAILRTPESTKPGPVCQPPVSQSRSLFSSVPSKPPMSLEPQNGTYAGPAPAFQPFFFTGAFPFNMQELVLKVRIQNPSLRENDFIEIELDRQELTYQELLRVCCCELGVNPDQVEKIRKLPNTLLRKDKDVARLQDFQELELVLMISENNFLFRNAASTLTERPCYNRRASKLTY
UniProt Q8N8A2: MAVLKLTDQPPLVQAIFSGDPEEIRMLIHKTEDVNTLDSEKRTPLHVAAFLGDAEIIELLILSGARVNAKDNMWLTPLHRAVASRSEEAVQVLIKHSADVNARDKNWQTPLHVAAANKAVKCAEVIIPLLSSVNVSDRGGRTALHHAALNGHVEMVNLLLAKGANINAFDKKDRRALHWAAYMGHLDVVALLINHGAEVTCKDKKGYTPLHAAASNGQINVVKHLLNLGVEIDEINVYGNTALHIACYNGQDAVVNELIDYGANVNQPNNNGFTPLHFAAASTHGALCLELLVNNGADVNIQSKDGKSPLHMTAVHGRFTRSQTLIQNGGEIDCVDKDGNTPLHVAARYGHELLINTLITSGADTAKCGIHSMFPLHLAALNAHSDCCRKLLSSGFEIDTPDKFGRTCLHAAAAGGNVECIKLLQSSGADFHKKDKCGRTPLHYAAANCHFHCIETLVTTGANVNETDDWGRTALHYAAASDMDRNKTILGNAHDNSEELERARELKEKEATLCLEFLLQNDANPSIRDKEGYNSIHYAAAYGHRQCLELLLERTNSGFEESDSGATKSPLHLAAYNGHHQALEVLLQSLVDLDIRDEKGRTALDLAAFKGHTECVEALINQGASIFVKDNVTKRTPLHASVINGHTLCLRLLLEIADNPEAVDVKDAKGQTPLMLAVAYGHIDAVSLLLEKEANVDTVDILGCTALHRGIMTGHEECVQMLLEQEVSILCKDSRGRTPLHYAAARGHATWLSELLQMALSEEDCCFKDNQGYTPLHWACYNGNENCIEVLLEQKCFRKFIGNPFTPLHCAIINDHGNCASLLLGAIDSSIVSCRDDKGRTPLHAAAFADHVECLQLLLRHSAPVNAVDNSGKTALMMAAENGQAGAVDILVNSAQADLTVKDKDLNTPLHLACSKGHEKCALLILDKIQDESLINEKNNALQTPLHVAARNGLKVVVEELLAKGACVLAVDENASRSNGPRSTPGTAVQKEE
UniProt Q9H9F9, whole entry: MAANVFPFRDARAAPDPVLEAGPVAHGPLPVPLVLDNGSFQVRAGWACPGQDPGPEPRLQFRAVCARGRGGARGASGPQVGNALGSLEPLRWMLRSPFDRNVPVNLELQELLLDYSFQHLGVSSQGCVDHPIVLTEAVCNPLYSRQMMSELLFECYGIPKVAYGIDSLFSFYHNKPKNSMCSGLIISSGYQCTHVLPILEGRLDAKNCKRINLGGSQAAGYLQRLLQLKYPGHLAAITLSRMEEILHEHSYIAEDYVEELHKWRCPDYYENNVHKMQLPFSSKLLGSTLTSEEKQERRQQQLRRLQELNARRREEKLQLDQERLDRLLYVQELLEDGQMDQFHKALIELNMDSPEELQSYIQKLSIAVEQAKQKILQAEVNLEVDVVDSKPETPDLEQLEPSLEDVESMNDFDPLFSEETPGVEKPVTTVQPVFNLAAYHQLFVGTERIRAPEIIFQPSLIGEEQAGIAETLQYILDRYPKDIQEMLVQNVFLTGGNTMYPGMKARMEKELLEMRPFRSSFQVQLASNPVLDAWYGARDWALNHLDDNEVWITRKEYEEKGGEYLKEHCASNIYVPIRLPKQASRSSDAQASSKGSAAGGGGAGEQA
UniProt P52566: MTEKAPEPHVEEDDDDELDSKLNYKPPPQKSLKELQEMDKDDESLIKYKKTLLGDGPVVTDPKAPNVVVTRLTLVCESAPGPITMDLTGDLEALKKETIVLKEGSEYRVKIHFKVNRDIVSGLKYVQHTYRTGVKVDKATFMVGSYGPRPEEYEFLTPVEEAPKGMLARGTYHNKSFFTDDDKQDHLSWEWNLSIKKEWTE
UniProt Q96SZ5, whole entry: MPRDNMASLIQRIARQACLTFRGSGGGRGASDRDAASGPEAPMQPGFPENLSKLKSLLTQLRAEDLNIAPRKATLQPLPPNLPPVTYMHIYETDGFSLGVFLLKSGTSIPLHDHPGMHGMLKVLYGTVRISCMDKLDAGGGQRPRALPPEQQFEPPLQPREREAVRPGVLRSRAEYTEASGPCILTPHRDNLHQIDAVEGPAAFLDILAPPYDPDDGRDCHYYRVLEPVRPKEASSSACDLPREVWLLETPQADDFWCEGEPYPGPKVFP
UniProt Q9P2R3: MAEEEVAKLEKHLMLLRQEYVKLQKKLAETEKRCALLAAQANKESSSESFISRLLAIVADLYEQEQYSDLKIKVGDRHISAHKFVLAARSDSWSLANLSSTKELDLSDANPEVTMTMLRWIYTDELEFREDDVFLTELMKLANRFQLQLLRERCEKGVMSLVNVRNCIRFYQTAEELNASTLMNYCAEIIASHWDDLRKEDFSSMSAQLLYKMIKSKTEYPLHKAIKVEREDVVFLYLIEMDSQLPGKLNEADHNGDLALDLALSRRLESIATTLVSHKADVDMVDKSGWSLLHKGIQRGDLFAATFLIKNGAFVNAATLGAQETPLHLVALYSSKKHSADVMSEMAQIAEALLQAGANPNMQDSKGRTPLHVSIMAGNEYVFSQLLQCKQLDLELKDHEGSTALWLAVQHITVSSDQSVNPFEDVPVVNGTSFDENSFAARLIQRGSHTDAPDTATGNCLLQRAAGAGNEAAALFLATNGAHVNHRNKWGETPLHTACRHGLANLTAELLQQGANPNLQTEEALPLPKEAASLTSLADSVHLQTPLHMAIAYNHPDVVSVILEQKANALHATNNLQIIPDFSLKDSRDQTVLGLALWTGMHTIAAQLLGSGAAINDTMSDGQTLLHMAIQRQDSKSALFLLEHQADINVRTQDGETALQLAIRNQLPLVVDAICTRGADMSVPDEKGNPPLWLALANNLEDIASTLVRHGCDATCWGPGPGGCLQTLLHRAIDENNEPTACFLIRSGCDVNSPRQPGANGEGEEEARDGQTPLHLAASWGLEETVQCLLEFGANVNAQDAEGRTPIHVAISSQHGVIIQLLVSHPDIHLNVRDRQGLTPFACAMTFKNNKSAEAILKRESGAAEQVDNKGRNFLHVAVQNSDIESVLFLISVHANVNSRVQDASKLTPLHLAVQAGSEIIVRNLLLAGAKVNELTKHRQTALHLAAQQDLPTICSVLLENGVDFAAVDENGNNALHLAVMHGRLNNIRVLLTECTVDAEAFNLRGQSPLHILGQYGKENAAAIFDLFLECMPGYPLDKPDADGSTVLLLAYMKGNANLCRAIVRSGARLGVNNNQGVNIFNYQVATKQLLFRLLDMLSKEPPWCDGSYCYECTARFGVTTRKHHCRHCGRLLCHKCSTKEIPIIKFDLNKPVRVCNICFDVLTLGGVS
UniProt Q9BVK2: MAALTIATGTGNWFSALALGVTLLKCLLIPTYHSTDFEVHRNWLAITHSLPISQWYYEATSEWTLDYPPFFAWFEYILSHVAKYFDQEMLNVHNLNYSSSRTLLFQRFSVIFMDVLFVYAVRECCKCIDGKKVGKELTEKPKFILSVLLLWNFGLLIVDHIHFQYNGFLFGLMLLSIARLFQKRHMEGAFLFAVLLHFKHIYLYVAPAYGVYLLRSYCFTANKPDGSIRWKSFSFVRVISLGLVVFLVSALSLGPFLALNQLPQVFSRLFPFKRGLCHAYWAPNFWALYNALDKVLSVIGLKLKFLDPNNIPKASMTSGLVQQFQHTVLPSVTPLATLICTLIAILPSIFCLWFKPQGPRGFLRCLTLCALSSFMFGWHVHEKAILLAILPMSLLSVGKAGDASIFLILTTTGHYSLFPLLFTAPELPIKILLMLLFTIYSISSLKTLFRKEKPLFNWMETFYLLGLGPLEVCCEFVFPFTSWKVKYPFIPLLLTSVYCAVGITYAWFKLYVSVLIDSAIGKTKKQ

compound: COc1ccc(Cn2ccc3ccc(C(=O)NO)cc32)cc1; experiment: dose-dependent thermal stabilisation call (2D-TPP, DLPTP, 10% FDR) (binary (1 = stabilised)); higher = stabilised by the compound; conditions: system: HL-60 intact cells; concentration range 0.04-10 µM

| Target | dose-dependent thermal stabilisation call |
| --- | --- |
| ALDH18A1 (UniProt P54886) | inactive: 0 |
| ANP32B (UniProt Q92688) | inactive: 0 |
| ANO10 (UniProt Q9NW15) | inactive: 0 |
| ADAR (UniProt P55265) | inactive: 0 |
| ACOX1 (UniProt Q15067) | inactive: 0 |
| AKT1 (UniProt P31749) | inactive: 0 |
| ALDH4A1 (UniProt P30038) | inactive: 0 |
| AP3D1 (UniProt O14617) | inactive: 0 |
| ALG2 (UniProt Q9H553) | inactive: 0 |
| AHCY (UniProt P23526) | inactive: 0 |
| AHSA1 (UniProt O95433) | inactive: 0 |
| ANKRD40 (UniProt Q6AI12) | inactive: 0 |
| ACSF3 (UniProt Q4G176) | inactive: 0 |
| ANKRD44 (UniProt Q8N8A2) | inactive: 0 |
| ANKRD46 (UniProt Q86W74) | inactive: 0 |
| AIM1 | inactive: 0 |
| ACTR2 (UniProt P61160) | inactive: 0 |
| AKAP9 (UniProt Q99996) | inactive: 0 |
| ACTR5 (UniProt Q9H9F9) | inactive: 0 |

| Target | dose-dependent thermal stabilisation call |
| --- | --- |
| ADA (UniProt P00813) | inactive: 0 |
| ACSM3 (UniProt Q53FZ2) | inactive: 0 |
| ACTR1B (UniProt P42025) | inactive: 0 |
| AGXT2L2 (UniProt Q8IUZ5) | inactive: 0 |
| ARHGDIB (UniProt P52566) | inactive: 0 |
| ACSL5 (UniProt Q9ULC5) | inactive: 0 |
| ADO (UniProt Q96SZ5) | inactive: 0 |
| ARHGEF11 (UniProt O15085) | inactive: 0 |
| ANKHD1-EIF4EBP3 | inactive: 0 |
| AGL (UniProt P35573) | inactive: 0 |
| ACTR3 (UniProt P61158) | inactive: 0 |
| ALDH1L1 (UniProt O75891) | inactive: 0 |
| ACPP (UniProt P15309) | inactive: 0 |
| ANKFY1 (UniProt Q9P2R3) | inactive: 0 |
| ALG8 (UniProt Q9BVK2) | inactive: 0 |
| AMBRA1 (UniProt Q9C0C7) | inactive: 0 |
| ARL2BP (UniProt Q9Y2Y0) | inactive: 0 |
| APPBP2 (UniProt Q92624) | inactive: 0 |

Quoted from the listing.
dose-dependent thermal stabilisation call, ANKRD46 (UniProt Q86W74) is entered as inactive: 0
dose-dependent thermal stabilisation call, ADO (UniProt Q96SZ5) is entered as inactive: 0
